Assay results taken from paper PMC12124498.

Sequences of proteins named here, by UniProt entry; tags and fusion partners are left off.
UniProt P26368: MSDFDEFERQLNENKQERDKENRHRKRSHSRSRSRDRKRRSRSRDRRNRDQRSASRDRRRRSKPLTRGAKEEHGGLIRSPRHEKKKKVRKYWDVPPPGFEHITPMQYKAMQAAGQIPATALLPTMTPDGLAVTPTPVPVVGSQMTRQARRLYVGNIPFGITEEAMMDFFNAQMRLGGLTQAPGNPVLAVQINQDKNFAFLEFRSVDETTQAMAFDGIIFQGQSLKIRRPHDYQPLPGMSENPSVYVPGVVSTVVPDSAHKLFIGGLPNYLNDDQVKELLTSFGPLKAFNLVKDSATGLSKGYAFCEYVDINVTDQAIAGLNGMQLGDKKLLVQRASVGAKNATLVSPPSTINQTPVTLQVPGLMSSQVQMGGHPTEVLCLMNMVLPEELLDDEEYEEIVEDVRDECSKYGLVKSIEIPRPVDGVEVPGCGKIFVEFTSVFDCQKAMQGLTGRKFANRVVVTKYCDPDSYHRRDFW

B1: KHSRP (protein, UniProt Q92945 1-711)
chain: MSDYSTGGPPPGPPPPAGGGGGAGGAGGGPPPGPPGAGDRGGGGPGGGGPGGGSAGGPSQPPGGGGPGIRKDAFADAVQRARQIAAKIGGDAATTVNNSTPDFGFGGQKRQLEDGDQPESKKLASQGDSISSQLGPIHPPPRTSMTEEYRVPDGMVGLIIGRGGEQINKIQQDSGCKVQISPDSGGLPERSVSLTGAPESVQKAKMMLDDIVSRGRGGPPGQFHDNANGGQNGTVQEIMIPAGKAGLVIGKGGETIKQLQERAGVKMILIQDGSQNTNVDKPLRIIGDPYKVQQACEMVMDILRERDQGGFGDRNEYGSRIGGGIDVPVPRHSVGVVIGRSGEMIKKIQNDAGVRIQFKQDDGTGPEKIAHIMGPPDRCEHAARIINDLLQSLRSGPPGPPGGPGMPPGGRGRGRGQGNWGPPGGEMTFSIPTHKCGLVIGRGGENVKAINQQTGAFVEISRQLPPNGDPNFKLFIIRGSPQQIDHAKQLIEEKIEGPLCPVGPGPGGPGPAGPMGPFNPGPFNQGPPGAPPHAGGPPPHQYPPQGWGNTYPQWQPPAPHDPSKAAAAAADPNAAWAAYYSHYYQQPPGPVPGPAPAPAAPPAQGEPPQPPPTGQSDYTKAWEEYYKKIGQQPQQPGAPPQQDYTKAWEEYYKKQAQVATGGGPGAPPGSQPDYSAAWAEYYRQQAAYYGQTPGPGGPQPPPTQQGQQQAQ
B2: DDX42 (protein, UniProt Q86XP3 1-938)
chain: MNWNKGGPGTKRGFGFGGFAISAGKKEEPKLPQQSHSAFGATSSSSGFGKSAPPQLPSFYKIGSKRANFDEENAYFEDEEEDSSNVDLPYIPAENSPTRQQFHSKPVDSDSDDDPLEAFMAEVEDQAARDMKRLEEKDKERKNVKGIRDDIEEEDDQEAYFRYMAENPTAGVVQEEEEDNLEYDSDGNPIAPTKKIIDPLPPIDHSEIDYPPFEKNFYNEHEEITNLTPQQLIDLRHKLNLRVSGAAPPRPGSSFAHFGFDEQLMHQIRKSEYTQPTPIQCQGVPVALSGRDMIGIAKTGSGKTAAFIWPMLIHIMDQKELEPGDGPIAVIVCPTRELCQQIHAECKRFGKAYNLRSVAVYGGGSMWEQAKALQEGAEIVVCTPGRLIDHVKKKATNLQRVSYLVFDEADRMFDMGFEYQVRSIASHVRPDRQTLLFSATFRKKIEKLARDILIDPIRVVQGDIGEANEDVTQIVEILHSGPSKWNWLTRRLVEFTSSGSVLLFVTKKANAEELANNLKQEGHNLGLLHGDMDQSERNKVISDFKKKDIPVLVATDVAARGLDIPSIKTVINYDVARDIDTHTHRIGRTGRAGEKGVAYTLLTPKDSNFAGDLVRNLEGANQHVSKELLDLAMQNAWFRKSRFKGGKGKKLNIGGGGLGYRERPGLGSENMDRGNNNVMSNYEAYKPSTGAMGDRLTAMKAAFQSQYKSHFVAASLSNQKAGSSAAGASGWTSAGSLNSVPTNSAQQGHNSPDSPVTSAAKGIPGFGNTGNISGAPVTYPSAGAQGVNNTASGNNSREGTGGSNGKRERYTENRGSSRHSHGETGNRHSDSPRHGDGGRHGDGYRHPESSSRHTDGHRHGENRHGGSAGRHGENRGANDGRNGESRKEAFNRESKMEPKMEPKVDSSKMDKVDSKTDKTADGFAVPEPPKRKKSRWDS
B3: PRPF3 (protein, UniProt O43395 1-683)
chain: MALSKRELDELKPWIEKTVKRVLGFSEPTVVTAALNCVGKGMDKKKAADHLKPFLDDSTLRFVDKLFEAVEEGRSSRHSKSSSDRSRKRELKEVFGDDSEISKESSGVKKRRIPRFEEVEEEPEVIPGPPSESPGMLTKLQIKQMMEAATRQIEERKKQLSFISPPTPQPKTPSSSQPERLPIGNTIQPSQAATFMNDAIEKARKAAELQARIQAQLALKPGLIGNANMVGLANLHAMGIAPPKVELKDQTKPTPLILDEQGRTVDATGKEIELTHRMPTLKANIRAVKREQFKQQLKEKPSEDMESNTFFDPRVSIAPSQRQRRTFKFHDKGKFEKIAQRLRTKAQLEKLQAEISQAARKTGIHTSTRLALIAPKKELKEGDIPEIEWWDSYIIPNGFDLTEENPKREDYFGITNLVEHPAQLNPPVDNDTPVTLGVYLTKKEQKKLRRQTRREAQKELQEKVRLGLMPPPEPKVRISNLMRVLGTEAVQDPTKVEAHVRAQMAKRQKAHEEANAARKLTAEQRKVKKIKKLKEDISQGVHISVYRVRNLSNPAKKFKIEANAGQLYLTGVVVLHKDVNVVVVEGGPKAQKKFKRLMLHRIKWDEQTSNTKGDDDEESDEEAVKKTNKCVLVWEGTAKDRSFGEMKFKQCPTENMAREHFKKHGAEHYWDLALSESVLESTD

Target: U2AF2-TurboID-HA (human) (UniProt P26368)
Assay: proximity labelling; U2AF2-TurboID-HA induced with doxycycline for 4 h in mesoderm cells differentiated from hiPSC (CHIR99021, 24 h); biotinylated proteins purified on streptavidin magnetic beads, LC-MS with label-free quantification; hits: Log2ΔLFQ >= 2 and p <= 0.05, mesoderm against pluripotent U2AF2-TurboID samples or against GFP-TurboID

binding	Binder
binds	B1
binds	B2
binds	B3

No constants are given. Whether binding was seen depends on the method and setting. In cells and extracts the contact can be indirect. These calls come from enrichment with a bait or labelling near it, and not all partners need be listed.
